Assay results: publication PMC11602027
These are yes or no findings as the source states them, for the method shown. In cells and extracts the contact can be indirect. A result given as binding can be weak or reduced; the word gives no strength. Tags and fused reporters may be left off the sequences shown.

By UniProt entry, the sequences of proteins in these tests, tags left out. Where a name states a change or a piece, a line headed by the entry shows the natural chain unless it says otherwise.
UniProt Q9Y7U6: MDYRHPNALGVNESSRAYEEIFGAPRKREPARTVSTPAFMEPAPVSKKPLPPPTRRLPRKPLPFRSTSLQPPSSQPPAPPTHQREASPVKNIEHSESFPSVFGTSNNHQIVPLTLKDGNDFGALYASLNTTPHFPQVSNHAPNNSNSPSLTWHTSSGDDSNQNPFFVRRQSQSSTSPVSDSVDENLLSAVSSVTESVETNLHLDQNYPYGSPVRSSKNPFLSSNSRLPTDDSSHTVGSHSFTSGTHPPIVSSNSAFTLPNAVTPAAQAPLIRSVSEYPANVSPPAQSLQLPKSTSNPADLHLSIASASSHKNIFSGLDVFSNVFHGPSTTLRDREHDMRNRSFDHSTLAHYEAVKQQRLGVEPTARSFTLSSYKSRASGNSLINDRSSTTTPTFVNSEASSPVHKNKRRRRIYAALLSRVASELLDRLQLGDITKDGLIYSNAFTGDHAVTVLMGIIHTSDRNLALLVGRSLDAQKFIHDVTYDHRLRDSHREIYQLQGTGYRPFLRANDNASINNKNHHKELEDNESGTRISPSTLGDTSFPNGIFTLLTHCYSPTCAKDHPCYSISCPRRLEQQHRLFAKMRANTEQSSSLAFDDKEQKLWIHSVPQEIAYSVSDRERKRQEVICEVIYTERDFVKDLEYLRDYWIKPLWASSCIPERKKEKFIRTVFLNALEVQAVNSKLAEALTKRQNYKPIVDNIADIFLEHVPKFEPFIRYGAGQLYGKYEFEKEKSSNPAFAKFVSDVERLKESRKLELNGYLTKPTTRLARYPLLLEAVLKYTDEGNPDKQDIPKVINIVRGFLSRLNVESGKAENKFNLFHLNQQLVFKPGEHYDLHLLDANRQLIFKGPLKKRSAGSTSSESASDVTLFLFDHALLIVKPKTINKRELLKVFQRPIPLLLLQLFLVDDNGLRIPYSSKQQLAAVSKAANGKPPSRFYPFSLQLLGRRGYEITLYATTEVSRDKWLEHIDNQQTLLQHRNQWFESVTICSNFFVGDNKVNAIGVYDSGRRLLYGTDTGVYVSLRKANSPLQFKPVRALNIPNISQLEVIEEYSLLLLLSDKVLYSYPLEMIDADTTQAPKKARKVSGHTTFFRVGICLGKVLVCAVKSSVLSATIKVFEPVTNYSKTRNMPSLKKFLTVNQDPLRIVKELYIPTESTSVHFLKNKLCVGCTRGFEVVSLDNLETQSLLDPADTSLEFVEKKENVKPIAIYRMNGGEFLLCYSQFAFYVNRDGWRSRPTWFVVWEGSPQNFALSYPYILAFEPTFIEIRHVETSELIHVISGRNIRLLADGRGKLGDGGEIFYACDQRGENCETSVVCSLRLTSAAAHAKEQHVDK

Target: T1, GST-Tea4 (S. pombe) (UniProt O60132)
T1 sequence: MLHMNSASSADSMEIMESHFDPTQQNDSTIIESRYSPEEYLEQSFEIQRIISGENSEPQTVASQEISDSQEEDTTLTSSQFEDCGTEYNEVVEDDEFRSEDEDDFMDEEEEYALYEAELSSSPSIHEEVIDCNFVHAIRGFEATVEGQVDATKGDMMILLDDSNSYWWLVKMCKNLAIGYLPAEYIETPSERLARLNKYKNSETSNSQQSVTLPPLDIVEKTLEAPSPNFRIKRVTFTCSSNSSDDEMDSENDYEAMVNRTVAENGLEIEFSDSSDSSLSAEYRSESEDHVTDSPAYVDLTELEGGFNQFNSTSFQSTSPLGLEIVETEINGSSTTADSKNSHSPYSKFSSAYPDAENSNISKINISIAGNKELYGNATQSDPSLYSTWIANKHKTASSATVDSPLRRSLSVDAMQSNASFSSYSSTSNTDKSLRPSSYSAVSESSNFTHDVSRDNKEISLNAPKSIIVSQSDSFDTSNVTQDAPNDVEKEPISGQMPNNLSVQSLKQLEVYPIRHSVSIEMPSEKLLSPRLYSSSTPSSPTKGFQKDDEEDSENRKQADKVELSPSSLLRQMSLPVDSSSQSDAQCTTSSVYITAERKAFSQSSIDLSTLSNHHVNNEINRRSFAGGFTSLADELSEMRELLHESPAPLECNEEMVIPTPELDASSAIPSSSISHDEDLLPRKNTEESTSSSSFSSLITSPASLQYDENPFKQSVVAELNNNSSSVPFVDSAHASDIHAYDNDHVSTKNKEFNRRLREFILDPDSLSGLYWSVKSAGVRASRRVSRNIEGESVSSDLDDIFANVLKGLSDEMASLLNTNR
Assay: pull-down; 2 to 10 μg GST-tagged protein purified from E. coli and coupled to GS beads, incubated 2 h with S. pombe cell extracts (2 to 3 mg total protein; 50 mM Tris-HCl pH 7.5, 20 mM NaCl, 0.5% NP-40, 10% glycerol); blotted with anti-HA or anti-GFP; GS beads alone as control; only the target purified

binding: binds
Substance: Rgf1ΔPTTR-HA (from UniProt Q9Y7U6)
